These are yes or no findings as the source states them, for the method shown. In cells and extracts the contact can be indirect. For some assays here: Binding can be weak; no strength is given. Tags and fused reporters may be left off the sequences shown. Blank lines part the entries; values can stand above or below the molecule they belong to.
Experiments:
[1] = biological target: T1, MBP-PGL1 (rice (Oryza sativa L. cv Nipponbare)) (UniProt Q0DUR2); assay: pull-down; amylose resin-bound MBP fusion incubated with an equal amount of GST fusion; binding buffer 20 mM Tris-HCl pH 7.5, 100 mM NaCl, 1 mM EDTA, 1 mM DTT, 0.2% 2-mercaptoethanol, protease inhibitor; 4°C, 2 hours; five washes with 300 mM NaCl, 0.05% Tween-20; immunoblot with anti-GST
T1 sequence: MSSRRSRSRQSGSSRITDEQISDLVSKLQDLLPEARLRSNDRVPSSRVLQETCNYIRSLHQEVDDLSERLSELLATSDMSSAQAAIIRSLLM

[2] = biological target: T2, GST-PGL1 (POSITIVE REGULATOR OF GRAIN LENGTH 1 fused to glutathione S-transferase) (rice (Oryza sativa L. cv Nipponbare)) (UniProt Q0DUR2); assay: pull-down; glutathione beads bound to GST-PGL1 incubated with equal amounts of Trx-Os12g; immunoblot with anti-His
T2 sequence: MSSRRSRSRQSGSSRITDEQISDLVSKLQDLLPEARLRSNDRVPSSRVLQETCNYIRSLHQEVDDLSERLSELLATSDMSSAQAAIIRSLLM

[3] = biological target: MBP-APG (ANTAGONIST OF PGL1 fused to maltose binding protein) (rice (Oryza sativa L. cv Nipponbare)); assay: pull-down; amylose resin-bound MBP fusion incubated with an equal amount of GST fusion; binding buffer 20 mM Tris-HCl pH 7.5, 100 mM NaCl, 1 mM EDTA, 1 mM DTT, 0.2% 2-mercaptoethanol, protease inhibitor; 4°C, 2 hours; five washes with 300 mM NaCl, 0.05% Tween-20; immunoblot with anti-GST
[4] = biological target: YC-APG (C-terminal half of EYFP fused to APG) (rice (Oryza sativa L. cv Nipponbare)); assay: split reporter; BiFC with halves of EYFP; Agrobacterium co-infiltration with p19 into N. benthamiana leaves, 48 hours, continuous light, 26°C; YFP seen by confocal or fluorescent microscope
[5] = biological target: C-EYFP alone (C-terminal half of enhanced yellow fluorescent protein); assay: as above

Molecule: Trx-Os12g (Os12g0610200 fused to thioredoxin) (rice (Oryza sativa L. cv Nipponbare))
- binding [2]: no binding

B2: YN-PGL1 (N-terminal half of EYFP fused to PGL1) (protein, UniProt Q0DUR2 1-92)
chain: MSSRRSRSRQSGSSRITDEQISDLVSKLQDLLPEARLRSNDRVPSSRVLQETCNYIRSLHQEVDDLSERLSELLATSDMSSAQAAIIRSLLM
- binding [4]: binds
- binding [5]: no binding

Continued, values first:

- binding [1]: no binding
Molecule: GST-Os04g (Os04g0618600 fused to glutathione S-transferase) (rice (Oryza sativa L. cv Nipponbare))

- binding [3]: binds
B1: GST-PGL1 (POSITIVE REGULATOR OF GRAIN LENGTH 1 fused to glutathione S-transferase) (protein, UniProt Q0DUR2 1-92)
chain: MSSRRSRSRQSGSSRITDEQISDLVSKLQDLLPEARLRSNDRVPSSRVLQETCNYIRSLHQEVDDLSERLSELLATSDMSSAQAAIIRSLLM

— PMC3283642
